Laboratory results as given in patent publication US12042530B2, “Target peptides for immunotherapy and diagnostics” (University of Virginia Patent Foundation, priority 2012, dated 2024).

The substances below were run on HLA-DR (assay: HLA-DR-associated phosphopeptides on melanoma cells and EBV-transformed B cells). Settings: Class II MHC (DRB1*0404, 0101 or DRB4*0103).
Set-up: species or system human; key: Melanoma and transformed B cells are specified by M and B, respectively.; Melanoma and transformed B cells are specified by M and B, respectively.; M/B: Melanoma (M) and/or Transformed B-Cells (B)

M/B (cells on which the Class II MHC phosphopeptide is presented), M/B:
520 (TKSVKALSSLHGDD; SITE (1)..(14): One or more of the listed amino acids can be phosphorylated as set forth in the Tables; listed as Homo sapiens) [compound 520]
542 (NRAMRRVSSVPSR; SITE (1)..(13): One or more of the listed amino acids can be phosphorylated as set forth in the Tables; listed as Homo sapiens) [compound 542]
551 (VLKSRKSSVTEE; SITE (1)..(12): One or more of the listed amino acids can be phosphorylated as set forth in the Tables; listed as Homo sapiens) [compound 551]
602 (GTLRRSDSQQAVK; SITE (1)..(13): One or more of the listed amino acids can be phosphorylated as set forth in the Tables; listed as Homo sapiens) [compound 602]
